Results as given in the supplement of paper PMC10849652.
The other results are listed elsewhere or left out.

Sequences of proteins named here, by UniProt entry; tags and fusion partners are left off. A change or cut given only in a name is not applied to a line headed by its entry.
UniProt O75351, whole entry, looked up: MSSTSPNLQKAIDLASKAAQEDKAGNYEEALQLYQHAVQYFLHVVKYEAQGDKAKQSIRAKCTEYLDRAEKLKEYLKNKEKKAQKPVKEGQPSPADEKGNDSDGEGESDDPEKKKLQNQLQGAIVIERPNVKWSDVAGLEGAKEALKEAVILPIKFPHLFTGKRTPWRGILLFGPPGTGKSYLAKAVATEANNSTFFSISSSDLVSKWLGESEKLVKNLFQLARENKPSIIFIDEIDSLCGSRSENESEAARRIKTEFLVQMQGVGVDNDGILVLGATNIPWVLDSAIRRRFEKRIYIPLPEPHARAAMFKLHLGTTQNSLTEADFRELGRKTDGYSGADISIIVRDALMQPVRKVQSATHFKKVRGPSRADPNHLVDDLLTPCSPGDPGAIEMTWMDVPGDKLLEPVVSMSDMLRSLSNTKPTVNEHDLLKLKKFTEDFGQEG
UniProt Q8N2E2: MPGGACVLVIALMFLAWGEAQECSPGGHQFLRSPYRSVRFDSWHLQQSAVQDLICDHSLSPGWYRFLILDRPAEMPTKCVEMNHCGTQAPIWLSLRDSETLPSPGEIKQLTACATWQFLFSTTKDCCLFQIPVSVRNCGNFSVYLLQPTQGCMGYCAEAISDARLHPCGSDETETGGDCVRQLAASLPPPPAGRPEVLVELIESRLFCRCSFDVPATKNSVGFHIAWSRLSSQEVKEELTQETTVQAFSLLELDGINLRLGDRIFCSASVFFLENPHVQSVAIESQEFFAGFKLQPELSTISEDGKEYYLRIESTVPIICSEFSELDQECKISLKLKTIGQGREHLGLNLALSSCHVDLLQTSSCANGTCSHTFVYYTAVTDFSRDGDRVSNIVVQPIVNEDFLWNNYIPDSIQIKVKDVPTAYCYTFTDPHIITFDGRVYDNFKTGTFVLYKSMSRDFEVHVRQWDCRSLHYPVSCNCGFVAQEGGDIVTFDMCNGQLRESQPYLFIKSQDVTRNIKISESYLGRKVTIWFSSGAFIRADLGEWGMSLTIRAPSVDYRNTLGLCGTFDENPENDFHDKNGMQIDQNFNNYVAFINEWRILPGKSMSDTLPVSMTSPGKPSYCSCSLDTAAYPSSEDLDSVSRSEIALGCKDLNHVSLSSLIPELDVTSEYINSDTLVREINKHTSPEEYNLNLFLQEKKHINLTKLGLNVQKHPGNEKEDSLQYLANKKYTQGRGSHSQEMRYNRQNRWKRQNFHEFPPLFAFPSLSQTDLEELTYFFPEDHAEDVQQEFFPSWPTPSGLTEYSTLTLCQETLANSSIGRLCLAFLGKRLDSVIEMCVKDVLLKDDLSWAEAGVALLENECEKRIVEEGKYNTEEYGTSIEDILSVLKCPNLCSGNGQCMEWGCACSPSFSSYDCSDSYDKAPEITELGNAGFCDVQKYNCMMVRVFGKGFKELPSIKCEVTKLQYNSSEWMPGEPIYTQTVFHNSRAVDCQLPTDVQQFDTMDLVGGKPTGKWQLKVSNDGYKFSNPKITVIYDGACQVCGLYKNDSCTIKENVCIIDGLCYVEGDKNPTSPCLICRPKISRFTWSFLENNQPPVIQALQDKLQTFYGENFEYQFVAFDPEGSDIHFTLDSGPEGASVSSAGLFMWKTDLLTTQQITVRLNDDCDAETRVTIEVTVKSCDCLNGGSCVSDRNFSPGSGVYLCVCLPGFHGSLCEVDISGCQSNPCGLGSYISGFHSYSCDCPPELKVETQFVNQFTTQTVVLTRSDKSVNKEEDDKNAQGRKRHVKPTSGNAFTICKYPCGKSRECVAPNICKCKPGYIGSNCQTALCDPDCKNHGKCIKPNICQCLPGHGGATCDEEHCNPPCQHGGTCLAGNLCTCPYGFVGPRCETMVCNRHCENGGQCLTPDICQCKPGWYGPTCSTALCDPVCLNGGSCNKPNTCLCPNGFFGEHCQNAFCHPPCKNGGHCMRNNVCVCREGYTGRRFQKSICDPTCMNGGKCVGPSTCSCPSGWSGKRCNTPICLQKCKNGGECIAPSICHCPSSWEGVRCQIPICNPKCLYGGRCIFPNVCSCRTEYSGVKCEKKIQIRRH
UniProt O95785: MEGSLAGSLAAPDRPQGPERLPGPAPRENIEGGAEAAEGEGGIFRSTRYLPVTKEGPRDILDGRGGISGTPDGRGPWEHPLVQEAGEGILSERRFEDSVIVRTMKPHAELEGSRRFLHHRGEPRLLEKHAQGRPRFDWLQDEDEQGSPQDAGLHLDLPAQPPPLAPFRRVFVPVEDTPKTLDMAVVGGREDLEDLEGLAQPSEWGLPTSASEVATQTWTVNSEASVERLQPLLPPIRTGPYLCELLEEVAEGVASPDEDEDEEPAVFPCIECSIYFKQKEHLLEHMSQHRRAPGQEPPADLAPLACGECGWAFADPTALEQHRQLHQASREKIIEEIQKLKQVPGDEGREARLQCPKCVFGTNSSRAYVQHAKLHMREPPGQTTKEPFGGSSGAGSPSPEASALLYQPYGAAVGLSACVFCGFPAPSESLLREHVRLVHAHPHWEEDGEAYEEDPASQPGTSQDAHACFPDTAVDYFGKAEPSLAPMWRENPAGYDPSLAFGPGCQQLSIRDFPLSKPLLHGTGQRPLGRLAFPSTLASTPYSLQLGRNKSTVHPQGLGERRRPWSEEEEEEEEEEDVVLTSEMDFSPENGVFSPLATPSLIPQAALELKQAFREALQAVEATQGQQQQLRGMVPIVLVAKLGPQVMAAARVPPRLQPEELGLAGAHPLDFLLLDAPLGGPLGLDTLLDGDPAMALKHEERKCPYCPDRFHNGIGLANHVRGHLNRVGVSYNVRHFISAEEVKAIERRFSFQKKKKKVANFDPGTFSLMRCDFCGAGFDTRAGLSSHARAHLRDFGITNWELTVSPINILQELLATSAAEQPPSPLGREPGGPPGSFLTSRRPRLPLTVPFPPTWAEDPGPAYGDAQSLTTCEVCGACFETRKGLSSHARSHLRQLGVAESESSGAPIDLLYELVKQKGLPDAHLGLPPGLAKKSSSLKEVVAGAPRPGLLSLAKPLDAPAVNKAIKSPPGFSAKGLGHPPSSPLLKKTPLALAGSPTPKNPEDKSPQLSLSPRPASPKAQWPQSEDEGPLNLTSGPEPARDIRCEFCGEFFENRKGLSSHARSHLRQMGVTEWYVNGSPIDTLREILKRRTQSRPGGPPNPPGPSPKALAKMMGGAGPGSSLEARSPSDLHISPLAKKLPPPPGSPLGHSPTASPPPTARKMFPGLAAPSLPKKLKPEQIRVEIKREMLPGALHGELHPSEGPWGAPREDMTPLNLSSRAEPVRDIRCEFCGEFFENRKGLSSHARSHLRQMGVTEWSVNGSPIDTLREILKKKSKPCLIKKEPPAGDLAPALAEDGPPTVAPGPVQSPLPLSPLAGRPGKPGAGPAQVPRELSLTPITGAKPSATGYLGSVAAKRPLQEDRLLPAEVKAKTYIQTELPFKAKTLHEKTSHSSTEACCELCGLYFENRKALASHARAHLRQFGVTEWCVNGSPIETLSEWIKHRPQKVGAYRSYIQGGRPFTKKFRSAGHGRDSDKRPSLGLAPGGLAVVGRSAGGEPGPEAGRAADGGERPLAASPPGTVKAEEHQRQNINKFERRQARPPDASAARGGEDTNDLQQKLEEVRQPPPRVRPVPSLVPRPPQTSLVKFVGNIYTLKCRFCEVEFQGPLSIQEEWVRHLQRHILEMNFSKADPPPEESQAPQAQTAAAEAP
UniProt O00258: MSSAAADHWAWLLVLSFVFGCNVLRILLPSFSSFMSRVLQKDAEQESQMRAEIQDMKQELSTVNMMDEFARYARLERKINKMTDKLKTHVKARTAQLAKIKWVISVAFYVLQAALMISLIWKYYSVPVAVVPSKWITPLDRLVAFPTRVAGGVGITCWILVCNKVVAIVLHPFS
UniProt O00401, whole entry, looked up: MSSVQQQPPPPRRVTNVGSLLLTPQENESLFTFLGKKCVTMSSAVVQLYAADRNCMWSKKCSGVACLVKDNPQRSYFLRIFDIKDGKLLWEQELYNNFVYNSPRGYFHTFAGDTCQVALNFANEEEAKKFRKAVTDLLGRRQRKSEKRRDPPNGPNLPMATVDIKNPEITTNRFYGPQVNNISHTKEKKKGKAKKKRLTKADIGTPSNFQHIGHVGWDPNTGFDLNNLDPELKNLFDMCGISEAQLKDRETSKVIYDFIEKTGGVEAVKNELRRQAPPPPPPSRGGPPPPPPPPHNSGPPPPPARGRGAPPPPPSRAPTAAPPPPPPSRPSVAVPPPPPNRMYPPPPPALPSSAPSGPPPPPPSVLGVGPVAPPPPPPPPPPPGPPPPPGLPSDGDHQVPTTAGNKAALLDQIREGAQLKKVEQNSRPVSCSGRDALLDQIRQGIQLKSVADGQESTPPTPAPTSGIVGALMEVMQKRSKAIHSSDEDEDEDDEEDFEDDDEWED
UniProt Q9Y2I8: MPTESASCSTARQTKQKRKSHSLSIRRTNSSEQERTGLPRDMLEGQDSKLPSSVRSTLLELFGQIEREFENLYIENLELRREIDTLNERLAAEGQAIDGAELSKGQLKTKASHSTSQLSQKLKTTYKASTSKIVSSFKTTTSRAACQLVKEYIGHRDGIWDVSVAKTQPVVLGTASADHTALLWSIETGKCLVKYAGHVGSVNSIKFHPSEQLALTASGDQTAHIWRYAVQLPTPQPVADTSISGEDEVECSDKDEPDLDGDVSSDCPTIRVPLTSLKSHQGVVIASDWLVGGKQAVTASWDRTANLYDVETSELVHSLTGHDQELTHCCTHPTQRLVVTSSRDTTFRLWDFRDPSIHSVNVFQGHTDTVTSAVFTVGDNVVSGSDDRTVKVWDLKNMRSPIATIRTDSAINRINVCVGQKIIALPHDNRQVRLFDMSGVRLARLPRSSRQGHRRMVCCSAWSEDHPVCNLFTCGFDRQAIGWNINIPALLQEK
UniProt Q8NEZ2: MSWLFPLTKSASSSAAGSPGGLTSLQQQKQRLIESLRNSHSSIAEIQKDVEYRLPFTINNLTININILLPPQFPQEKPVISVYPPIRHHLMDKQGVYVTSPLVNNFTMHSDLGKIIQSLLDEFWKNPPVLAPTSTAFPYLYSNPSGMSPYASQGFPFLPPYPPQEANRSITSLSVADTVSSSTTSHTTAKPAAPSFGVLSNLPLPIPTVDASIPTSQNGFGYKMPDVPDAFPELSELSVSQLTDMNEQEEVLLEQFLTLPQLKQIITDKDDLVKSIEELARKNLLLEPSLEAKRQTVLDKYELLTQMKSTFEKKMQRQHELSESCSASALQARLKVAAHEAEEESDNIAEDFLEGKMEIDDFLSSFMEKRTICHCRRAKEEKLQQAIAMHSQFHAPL
UniProt Q8IWB7: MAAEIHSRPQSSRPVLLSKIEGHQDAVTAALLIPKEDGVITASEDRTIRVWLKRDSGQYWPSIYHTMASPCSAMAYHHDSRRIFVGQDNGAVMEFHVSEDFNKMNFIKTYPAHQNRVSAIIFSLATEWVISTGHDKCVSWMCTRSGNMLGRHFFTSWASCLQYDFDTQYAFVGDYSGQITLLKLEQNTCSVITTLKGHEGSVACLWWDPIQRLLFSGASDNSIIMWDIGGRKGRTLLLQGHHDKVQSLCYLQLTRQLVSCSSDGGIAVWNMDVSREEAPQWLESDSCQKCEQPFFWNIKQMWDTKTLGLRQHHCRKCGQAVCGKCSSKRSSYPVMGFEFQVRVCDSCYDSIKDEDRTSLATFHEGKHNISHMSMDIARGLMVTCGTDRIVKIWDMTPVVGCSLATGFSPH
UniProt O94967: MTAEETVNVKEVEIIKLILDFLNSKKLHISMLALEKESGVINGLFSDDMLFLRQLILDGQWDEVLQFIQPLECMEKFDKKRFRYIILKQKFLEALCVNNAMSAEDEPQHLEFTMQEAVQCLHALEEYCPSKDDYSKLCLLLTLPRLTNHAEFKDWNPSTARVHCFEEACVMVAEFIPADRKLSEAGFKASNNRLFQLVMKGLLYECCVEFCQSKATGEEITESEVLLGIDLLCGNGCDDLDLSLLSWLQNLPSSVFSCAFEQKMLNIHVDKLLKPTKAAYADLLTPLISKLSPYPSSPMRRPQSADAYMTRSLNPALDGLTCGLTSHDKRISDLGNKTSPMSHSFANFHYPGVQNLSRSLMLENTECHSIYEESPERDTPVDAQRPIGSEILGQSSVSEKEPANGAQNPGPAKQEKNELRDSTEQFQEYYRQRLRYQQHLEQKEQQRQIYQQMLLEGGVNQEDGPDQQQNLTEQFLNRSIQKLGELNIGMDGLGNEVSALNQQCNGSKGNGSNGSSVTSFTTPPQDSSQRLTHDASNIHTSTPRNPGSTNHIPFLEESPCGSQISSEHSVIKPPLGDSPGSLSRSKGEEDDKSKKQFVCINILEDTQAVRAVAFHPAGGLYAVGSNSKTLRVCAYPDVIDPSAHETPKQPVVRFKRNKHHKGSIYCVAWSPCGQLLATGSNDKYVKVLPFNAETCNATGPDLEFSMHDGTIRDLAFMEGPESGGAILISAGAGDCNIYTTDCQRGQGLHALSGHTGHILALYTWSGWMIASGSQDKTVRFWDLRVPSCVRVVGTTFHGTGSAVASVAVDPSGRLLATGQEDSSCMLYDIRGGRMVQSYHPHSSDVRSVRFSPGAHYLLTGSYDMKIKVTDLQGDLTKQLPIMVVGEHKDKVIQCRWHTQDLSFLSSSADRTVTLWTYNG

Key:
Test in all cases: log2 fold change, soluble protein after heating vs DMSO (PISA); higher = thermal stabilisation; K562 cells, 10 uM, 30 min; active = over 0.2 and 3.5 SD of the protein, either way, in both replicates (recomputed)
[1] = compound: C1=CC=C(C=C1)[C@H](COC2=CC3=C(C=C2)NC(=O)N3)NC(=O)C4=CC=CN(C4=O)CC5=CC(=C(C=C5)F)F
How it was run: (§1)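 Values are thermal stability changes relative to control samples and are taken from duplicates. They are stated as log2 fold changes. Before quantification by TMTpro 16plex LC-MS/MS with equalised channel sums, K562 cells at 2×10^6 cells/mL were treated with 10 μM compound for 30 min, heated in aliquots for 3 min across 48°C-58°C, pooled, extracted in PBS with 0.5% NP-40 at 4°C, and centrifuged at 21,000xg for 90 min to give the soluble supernatant.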

[2] = compound: CC1=C(SC2=C1C(=N[C@H](C3=NN=C(N32)C)CC(=O)N)C4=CC=C(C=C4)Cl)C
How it was run: as §1

[3] = compound: CC1=C2C(=CC=C1)N=C(N(C2=O)C3=CC=CC=C3C)CN4C=NC5=C(N=CN=C54)N
How it was run: as §1

[4] = compound: Cc1sc2c(c1C)C(c1ccc(Cl)cc1)=N[C@@H](CC(=O)OC(C)(C)C)c1nnc(C)n1-2
How it was run: as §1

[5] = compound: c1ccc([C@@H]2C[C@H]2NC2CCNCC2)cc1
How it was run: as §1

Measured: log2 fold change

VPS4B (UniProt O75351)
inactive: [1] -0.051 | [2] 0.054 | [3] 0.09 | [4] 0.007 | [5] -0.004

WBP11 (UniProt Q9Y2W2)
inactive: [1] 0.021 | [2] -0.024 | [3] -0.047 | [4] 0.024 | [5] 0.032

WDR41 (UniProt Q9HAD4)
inactive: [1] -0.045 | [2] -0.08 | [3] -0.033 | [4] -0.03 | [5] 0.055

VWDE (UniProt Q8N2E2)
inactive: [1] 0.035 | [2] -0.06 | [3] -0.017 | [4] 0.048 | [5] 0

WDR13 (UniProt Q9H1Z4)
inactive: [1] 0.009 | [2] 0.052 | [3] 0.071 | [4] -0.013 | [5] -0.114

VPS26C (UniProt O14972)
inactive: [1] -0.047 | [2] -0.068 | [3] -0.361 | [4] -0.051 | [5] -0.016

VPS52 (UniProt Q8N1B4)
inactive: [1] 0.068 | [2] 0.036 | [3] 0.137 | [4] -0.057 | [5] -0.028

WDHD1 (UniProt O75717)
inactive: [1] -0.014 | [2] 0.085 | [3] 0.121 | [4] 0.002 | [5] 0.015

WIZ isoform 3 (UniProt O95785)
inactive: [1] -0.054 | [2] -0.025 | [3] -0.101 | [4] 0.139 | [5] -0.012

WDR92 (UniProt Q96MX6)
inactive: [1] -0.011 | [2] -0.005 | [3] 0.084 | [4] -0.083 | [5] -0.035

WRB (UniProt O00258)
inactive: [1] 0.002 | [2] -0.007 | [3] -0.015 | [4] 0.005 | [5] 0.01

VPS29 isoform 2 (UniProt Q9UBQ0)
inactive: [1] -0.019 | [2] -0.005 | [3] 0.051 | [4] 0 | [5] 0.062

WDR26, A0A499FIZ0
inactive: [1] 0.002 | [2] -0.064 | [3] 0.003 | [4] 0.008 | [5] 0.042

WASL (UniProt O00401)
inactive: [1] -0.043 | [2] 0.019 | [3] 0.054 | [4] 0.024 | [5] -0.071

WARS1 (UniProt G3V227)
inactive: [1] 0.09 | [2] -0.089 | [3] 0.042 | [4] 0.333 | [5] -0.185

WDR37 isoform 2 (UniProt Q9Y2I8)
inactive: [1] 0.039 | [2] -0.06 | [3] 0.062 | [4] 0.079 | [5] 0.054

WASHC3 (UniProt Q9Y3C0)
inactive: [1] 0.015 | [2] -0.022 | [3] 0.045 | [4] -0.001 | [5] 0.028

VPS37A (UniProt Q8NEZ2)
inactive: [1] -0.076 | [2] 0.088 | [3] 0.126 | [4] 0.007 | [5] 0.036

VPS26A (UniProt O75436)
inactive: [1] -0.029 | [2] 0.08 | [3] 0.055 | [4] -0.021 | [5] -0.004

WDR62 isoform 4 (UniProt O43379)
inactive: [1] 0.007 | [2] 0.027 | [3] 0.031 | [4] 0.004 | [5] 0.009

WDTC1 (UniProt Q8N5D0)
inactive: [1] -0.059 | [2] -0.043 | [3] 0.036 | [4] -0.093 | [5] -0.06

WDFY1 (UniProt Q8IWB7)
inactive: [1] -0.001 | [2] -0.024 | [3] -0.016 | [4] 0.027 | [5] 0.058

6 successive entries out of the list so far, quoted:
VPS26C (UniProt O14972)
inactive: [1] -0.047 | [2] -0.068 | [3] -0.361 | [4] -0.051 | [5] -0.016

VPS52 (UniProt Q8N1B4)
inactive: [1] 0.068 | [2] 0.036 | [3] 0.137 | [4] -0.057 | [5] -0.028

WDHD1 (UniProt O75717)
inactive: [1] -0.014 | [2] 0.085 | [3] 0.121 | [4] 0.002 | [5] 0.015

WIZ isoform 3 (UniProt O95785)
inactive: [1] -0.054 | [2] -0.025 | [3] -0.101 | [4] 0.139 | [5] -0.012

WDR92 (UniProt Q96MX6)
inactive: [1] -0.011 | [2] -0.005 | [3] 0.084 | [4] -0.083 | [5] -0.035

WRB (UniProt O00258)
inactive: [1] 0.002 | [2] -0.007 | [3] -0.015 | [4] 0.005 | [5] 0.01

Next entries

VDAC3 (UniProt Q9Y277)
inactive: [1] 0.036 | [2] 0.026 | [3] 0.097 | [4] -0.034 | [5] -0.014

WDR47 (UniProt O94967)
inactive: [1] 0.019 | [2] 0.004 | [3] -0.042 | [4] -0.031 | [5] 0.078
